Earlier results, collected in US20070266892A1, “Amyloid and Amyloid-like Structures” (The Provost, Fellows and Scholars of the College of The …, priority 2006, published 2007).

Conditions: literature values; cited from earlier work

Substance	persistence length
tenascin	0.42 nm
titin	0.4 nm
